# The list shows a part of the results.
# Sequences of proteins named here, by UniProt entry; tags and fusion partners are left off. A change or cut given only in a name is not applied to a line headed by its entry.
# UniProt Q5T6L9: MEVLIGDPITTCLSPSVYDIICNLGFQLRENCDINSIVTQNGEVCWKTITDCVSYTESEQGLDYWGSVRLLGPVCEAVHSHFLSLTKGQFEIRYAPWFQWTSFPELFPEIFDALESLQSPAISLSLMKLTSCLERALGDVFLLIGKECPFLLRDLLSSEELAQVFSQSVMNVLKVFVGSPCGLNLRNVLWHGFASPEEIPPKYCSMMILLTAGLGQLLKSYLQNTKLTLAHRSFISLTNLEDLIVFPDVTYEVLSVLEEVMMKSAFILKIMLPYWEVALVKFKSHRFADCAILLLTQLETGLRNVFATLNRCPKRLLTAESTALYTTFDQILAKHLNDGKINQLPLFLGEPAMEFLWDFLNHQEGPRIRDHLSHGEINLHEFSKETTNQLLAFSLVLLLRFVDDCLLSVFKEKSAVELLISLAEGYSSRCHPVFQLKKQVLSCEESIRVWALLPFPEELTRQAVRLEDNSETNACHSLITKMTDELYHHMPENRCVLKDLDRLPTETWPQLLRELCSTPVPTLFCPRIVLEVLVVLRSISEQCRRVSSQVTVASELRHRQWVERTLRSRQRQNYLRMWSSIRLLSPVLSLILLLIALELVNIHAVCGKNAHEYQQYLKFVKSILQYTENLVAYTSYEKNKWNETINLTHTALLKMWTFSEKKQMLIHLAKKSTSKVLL
# UniProt Q9NVH0: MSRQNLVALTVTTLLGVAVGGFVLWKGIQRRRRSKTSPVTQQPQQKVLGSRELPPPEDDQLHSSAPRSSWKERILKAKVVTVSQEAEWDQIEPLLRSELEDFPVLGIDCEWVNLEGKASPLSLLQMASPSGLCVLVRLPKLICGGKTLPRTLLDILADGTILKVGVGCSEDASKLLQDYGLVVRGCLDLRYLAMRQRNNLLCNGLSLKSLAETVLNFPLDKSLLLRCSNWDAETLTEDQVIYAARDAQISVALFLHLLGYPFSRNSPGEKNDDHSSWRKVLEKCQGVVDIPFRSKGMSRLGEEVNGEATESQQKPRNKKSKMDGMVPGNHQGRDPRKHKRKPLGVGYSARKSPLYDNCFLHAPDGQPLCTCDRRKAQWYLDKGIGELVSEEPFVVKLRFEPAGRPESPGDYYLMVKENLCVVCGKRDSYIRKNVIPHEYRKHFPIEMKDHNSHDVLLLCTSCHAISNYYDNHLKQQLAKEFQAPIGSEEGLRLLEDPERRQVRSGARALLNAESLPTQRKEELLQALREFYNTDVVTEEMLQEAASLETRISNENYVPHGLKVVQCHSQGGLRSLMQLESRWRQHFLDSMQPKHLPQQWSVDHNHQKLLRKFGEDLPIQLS
# UniProt P50548: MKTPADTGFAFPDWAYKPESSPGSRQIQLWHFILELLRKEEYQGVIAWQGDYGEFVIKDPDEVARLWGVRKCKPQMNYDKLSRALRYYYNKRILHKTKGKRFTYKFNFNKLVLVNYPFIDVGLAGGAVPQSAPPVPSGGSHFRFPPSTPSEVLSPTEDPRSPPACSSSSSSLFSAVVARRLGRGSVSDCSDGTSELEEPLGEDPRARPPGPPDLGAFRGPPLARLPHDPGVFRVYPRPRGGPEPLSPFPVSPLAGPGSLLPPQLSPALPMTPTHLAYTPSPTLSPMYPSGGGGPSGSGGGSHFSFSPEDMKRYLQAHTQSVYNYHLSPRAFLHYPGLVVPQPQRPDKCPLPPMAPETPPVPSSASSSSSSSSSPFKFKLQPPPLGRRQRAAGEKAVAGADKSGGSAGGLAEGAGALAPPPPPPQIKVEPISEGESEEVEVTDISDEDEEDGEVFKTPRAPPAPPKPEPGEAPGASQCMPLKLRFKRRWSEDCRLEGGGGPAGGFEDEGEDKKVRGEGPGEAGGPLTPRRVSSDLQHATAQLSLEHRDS
# UniProt Q8N0U4: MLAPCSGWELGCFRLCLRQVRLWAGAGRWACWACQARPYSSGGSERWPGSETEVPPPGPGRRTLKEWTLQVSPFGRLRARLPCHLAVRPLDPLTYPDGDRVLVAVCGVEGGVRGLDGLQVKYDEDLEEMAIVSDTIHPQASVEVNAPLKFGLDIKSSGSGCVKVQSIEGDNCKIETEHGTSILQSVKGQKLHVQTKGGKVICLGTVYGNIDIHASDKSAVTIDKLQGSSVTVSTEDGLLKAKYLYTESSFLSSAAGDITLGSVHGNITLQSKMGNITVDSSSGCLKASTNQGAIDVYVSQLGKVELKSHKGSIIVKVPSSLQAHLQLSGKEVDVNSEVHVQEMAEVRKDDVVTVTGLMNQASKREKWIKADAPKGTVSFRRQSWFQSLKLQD
# UniProt Q8TE68: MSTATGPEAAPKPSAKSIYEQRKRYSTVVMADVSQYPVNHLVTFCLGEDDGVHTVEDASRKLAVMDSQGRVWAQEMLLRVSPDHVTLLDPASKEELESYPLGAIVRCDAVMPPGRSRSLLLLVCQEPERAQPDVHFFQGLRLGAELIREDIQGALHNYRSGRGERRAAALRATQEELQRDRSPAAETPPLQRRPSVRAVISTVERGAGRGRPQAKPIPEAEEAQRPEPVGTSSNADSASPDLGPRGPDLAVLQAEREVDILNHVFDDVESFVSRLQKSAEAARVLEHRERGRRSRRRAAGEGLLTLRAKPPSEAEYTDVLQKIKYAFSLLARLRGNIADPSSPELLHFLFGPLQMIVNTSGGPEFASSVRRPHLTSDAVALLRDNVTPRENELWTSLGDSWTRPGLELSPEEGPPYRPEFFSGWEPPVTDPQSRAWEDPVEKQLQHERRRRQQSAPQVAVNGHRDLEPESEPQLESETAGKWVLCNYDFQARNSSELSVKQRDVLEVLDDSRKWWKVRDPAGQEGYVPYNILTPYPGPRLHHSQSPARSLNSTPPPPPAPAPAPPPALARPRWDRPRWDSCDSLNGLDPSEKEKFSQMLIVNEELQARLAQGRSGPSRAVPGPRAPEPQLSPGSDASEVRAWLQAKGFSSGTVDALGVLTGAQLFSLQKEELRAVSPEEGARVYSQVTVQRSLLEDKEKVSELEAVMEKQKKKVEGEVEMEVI
# Tests used:
# Assay in all cases: log2 fold change, soluble protein after heating vs DMSO (PISA); higher = thermal stabilisation; K562 cells, 10 uM, 30 min; active = over 0.2 and 3.5 SD of the protein, either way, in both replicates (recomputed)
# [1] = compound: CC1=C(SC2=C1C(=N[C@H](C3=NN=C(N32)C)CC(=O)N)C4=CC=C(C=C4)Cl)C
# How it was run: (§1)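 Values are thermal stability changes relative to control samples and are taken from duplicates. They are stated as log2 fold changes. Before quantification by TMTpro 16plex LC-MS/MS with equalised channel sums, K562 cells at 2×10^6 cells/mL were treated with 10 μM compound for 30 min, heated in aliquots for 3 min across 48°C-58°C, pooled, extracted in PBS with 0.5% NP-40 at 4°C, and centrifuged at 21,000xg for 90 min to give the soluble supernatant.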
# [2] = compound: c1ccc([C@@H]2C[C@H]2NC2CCNCC2)cc1
# How it was run: as §1
# [3] = compound: Cc1sc2c(c1C)C(c1ccc(Cl)cc1)=N[C@@H](CC(=O)OC(C)(C)C)c1nnc(C)n1-2
# How it was run: as §1
# [4] = compound: C1=CC=C(C=C1)[C@H](COC2=CC3=C(C=C2)NC(=O)N3)NC(=O)C4=CC=CN(C4=O)CC5=CC(=C(C=C5)F)F
# How it was run: as §1
# [5] = compound: CC1=C2C(=CC=C1)N=C(N(C2=O)C3=CC=CC=C3C)CN4C=NC5=C(N=CN=C54)N
# How it was run: as §1
target,measurement,setting,value
ERMARD (UniProt Q5T6L9),log2 fold change,[1],inactive: -0.345
same,log2 fold change,[2],inactive: -0.064
EXD2 (UniProt Q9NVH0),log2 fold change,[1],inactive: -0.018
same,log2 fold change,[2],inactive: 0.027
ERF (UniProt P50548),log2 fold change,[3],inactive: -0.515
FAM185A (UniProt Q8N0U4),log2 fold change,[4],inactive: -0.056
same,log2 fold change,[5],inactive: 0.103
same,log2 fold change,[3],inactive: -0.205
EPS8L1 (UniProt Q8TE68),log2 fold change,[4],inactive: 0.212
same,log2 fold change,[1],inactive: 0.035
same,log2 fold change,[2],inactive: 0.231

# Reference: the supplement of paper PMC10849652
